{
  "source": "paper PMC9050003",
  "about": "“N- and C-terminal regions of the small heat shock protein IbpA from Acholeplasma laidlawii competitively govern its oligomerization pattern and chaperone-like activity†” (RSC Advances, 2020)",
  "biological_target": "T1, AlIbpASEP (Acholeplasma laidlawii) (UniProt A9NFB2)",
  "T1 sequence": "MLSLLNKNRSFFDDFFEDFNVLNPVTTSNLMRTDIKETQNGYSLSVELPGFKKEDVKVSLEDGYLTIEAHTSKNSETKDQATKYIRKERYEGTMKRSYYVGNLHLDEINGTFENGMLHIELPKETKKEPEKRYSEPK",
  "test": "SPR; BIAcore T200; His6-AlIbpA proteins immobilised on Ni2+-loaded NTA chip (FC2, about 2000 RU); His6-TnrA20 on FC1 as control, response difference FC2 − FC1; ADH 1.0 mg ml^−1 injected at 10 μl min^−1; 10 mM Na2HPO4, 150 mM NaCl, pH 7.4; KD calculated from the binding curve slopes; both purified",
  "note": "These are yes or no findings as the source states them, for the method shown.",
  "data": [
    {"substance": "alcohol dehydrogenase (enzyme)", "values": [
      {"measurement": "binding", "result": "no binding (tested: 1.0 mg ml^−1)"}
    ]}
  ]
}
